Results from patent publication US20120088262A1, “CYANINE COMPOUNDS, CONJUGATES AND METHOD OF USE” (Millipore Corporation, priority 2010, published 2012).
At least one structure is not confirmed: it was looked up by name or label, or the drawing left a doubt.

Experiment: Fluorescence excitation and emission spectrum of the dyes
Assay type: physicochemical
Conditions: for Em / Ex: in Methanol; for Em / emission max / Ex Peak / excitation max: solvent not given

SMILES	Em [nm]	Ex [nm]	Em / emission max [nm]	Ex Peak / excitation max [nm]
CC(C(=O)O)c1ccc(CN2/C(=C/C=C/C3=[N+](Cc4ccc(C(C)C(=O)O)cc4)c4ccc(S(=O)(=O)[O-])cc4C3(C)C)C(C)(C)c3cc(S(=O)(=O)[O-])ccc32)cc1.[K+] (centres unmarked) [Compound No. 4]	579	560	579	560
CC(C(=O)ON1C(=O)CCC1=O)c1ccc(CN2/C(=C/C=C/C3=[N+](Cc4ccc(C(C)C(=O)ON5C(=O)CCC5=O)cc4)c4ccc(S(=O)(=O)[O-])cc4C3(C)C)C(C)(C)c3cc(S(=O)(=O)[O-])ccc32)cc1.[K+] (centres unmarked) [Compound No. 5]	579	560	580	560
